What was measured:
[1] = system: tau fragments in human plasma; experiment: Simoa 3-step assays on human plasma (AD/MCI vs healthy control)
[2] = system: hT40, dGA and dGAE in spiked samples; format: binding, human; conditions: S1D12 mAb capture

B1: CA4: anti-tau core clone, Table 10; SEQ ID NO: 368 (protein)
scFv: QVQLQESGPSLVKPSQTLSLTCTVSGFSLTSYSVYWVRQAPGQALEWISIMYASGRVDYNPALKSRLSITRDTSKSQFSLSLSSVTTEDTAVYYCTRGIENWGPGLLVTVSSEGKSSGASGESKVDDDIQVTQSPSSLSASLTERVSITCRTSQSVNNYLSWYQQKPGQAPKLLIYYATRLYTDVPSRFSGSGSGTDYTLTITSLEADDTATYYCLQYDSTPLAFGGGTNVEIK
modifications: CA4 amino acid sequence
functional lower limit of quantification ([1]; CA4 capture, BT2 detector): around 1 ng/ml

B2: S1D12: sheep-derived anti-tau core clone; scFv SEQ ID NO: 32, VH 443, VL 444 (protein)
scFv: QVQLQESGPSLVKPSQTLSLTCTVSGFSLNNNAVGWVRQAPGKVPESLVGCSSDGTCYYNSALKSRLDITRDTSKNQISLSLSSVTTDDAAVYYCTRGHYSIYGYDYLGTIDYWGPGLLVTVSSEGKSSGASGESKVDDQAVLTQPSSVSGSLGQRVSITCSGSSSNVGGGNSVGWYQHLPGSGLKTIIYDTNSRPSGVPDRFSGSRSGNTATLTINSLQAEDEGDYYCVTGDSTTHDDLVGSGTRLTVLG
modifications: S1D12 amino acid sequence
tau measured relative to NT1 assay ([1]; human plasma): 1,000 fold

B3: S1D12 mAb: S1D12 reformatted; heavy chain SEQ ID NO: 445, light chain 446 (antibody)
heavy: QVQLQESGPSLVKPSQTLSLTCTVSGFSLNNNAVGWVRQAPGKVPESLVGCSSDGTCYYNSALKSRLDITRDTSKNQISLSLSSVTTDDAAVYYCTRGHYSIYGYDYLGTIDYWGPGLLVTVSSAKTTAPSVYPLAPVCGDTTGSSVTLGCLVKGYFPEPVTLTWNSGSLSSGVHTFPAVLQSDLYTLSSSVTVTSSTWPSQSITCNVAHPASSTKVDKKIEPRGPTIKPCPPCKCPAPNLLGGPSVFIFPPKIKDVLMISLSPIVTCVVVDVSEDDPDVQISWFVNNVEVHTAQTQTHREDYNSTLRVVSALPIQHQDWMSGKEFKCKVNNKDLPAPIERTISKPKGSVRAPQVYVLPPPEEEMTKKQVTLTCMVTDFMPEDIYVEWTNNGKTELNYKNTEPVLDSDGSYFMYSKLRVEKKNWVERNSYSCSVVHEGLHNHHTTKSFSRTPGK
light: QAVLTQPSSVSGSLGQRVSITCSGSSSNVGGGNSVGWYQHLPGSGLKTIIYDTNSRPSGVPDRFSGSRSGNTATLTINSLQAEDEGDYYCVTGDSTTHDDLVGSGTRLTVLGGQPKSSPSVTLFPPSSEELETNKATLVCTITDFYPGVVTVDWKVDGTPVTQGMETTQPSKQSNNKYMASSYLTLTARAWERHSSYSCQVTHEGHTVEKSLSRADCS
modifications: S1D12 mAB Heavy Chain; S1D12 mAB Light Chain
binding signal of spiked samples A-D, ELISA #1 ([2]; CB7 scAb detection): Sample C did not generate a binding signal | binding signal of spiked samples A-D, ELISA #2 ([2]; E2E8 scAb detection): Samples A, C and D did not generate any binding signals
